Results are given in words; binding and its absence hold for the method and conditions named. In cells and extracts the contact can be indirect. Some binding calls cover weakened binding; strength is not graded here. Tags and fused reporters may be left off the sequences shown.
Target: T1, Glucosylceramidase beta 1 (GCase) Leu444Pro, HA-tagged (human) (UniProt P04062)
T1 sequence: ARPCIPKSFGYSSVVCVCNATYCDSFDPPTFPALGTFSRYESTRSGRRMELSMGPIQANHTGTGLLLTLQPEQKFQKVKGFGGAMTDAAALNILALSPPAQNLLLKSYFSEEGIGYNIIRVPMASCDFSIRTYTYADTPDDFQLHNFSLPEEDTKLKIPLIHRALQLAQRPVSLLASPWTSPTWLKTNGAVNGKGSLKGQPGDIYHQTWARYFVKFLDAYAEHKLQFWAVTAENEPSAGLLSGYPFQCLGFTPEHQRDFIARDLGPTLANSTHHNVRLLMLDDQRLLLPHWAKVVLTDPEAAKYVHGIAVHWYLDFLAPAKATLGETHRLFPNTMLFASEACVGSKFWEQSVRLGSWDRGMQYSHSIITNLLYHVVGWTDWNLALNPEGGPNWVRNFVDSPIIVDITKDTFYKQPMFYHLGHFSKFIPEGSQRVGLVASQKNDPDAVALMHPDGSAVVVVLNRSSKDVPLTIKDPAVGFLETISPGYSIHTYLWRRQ
Experiment: co-IP

Amino acid sequences for entries named in this document (tags omitted). A change or cut given only in a name is not applied to a line headed by its entry. Residues count along the entry.
UniProt P11021, 19-654: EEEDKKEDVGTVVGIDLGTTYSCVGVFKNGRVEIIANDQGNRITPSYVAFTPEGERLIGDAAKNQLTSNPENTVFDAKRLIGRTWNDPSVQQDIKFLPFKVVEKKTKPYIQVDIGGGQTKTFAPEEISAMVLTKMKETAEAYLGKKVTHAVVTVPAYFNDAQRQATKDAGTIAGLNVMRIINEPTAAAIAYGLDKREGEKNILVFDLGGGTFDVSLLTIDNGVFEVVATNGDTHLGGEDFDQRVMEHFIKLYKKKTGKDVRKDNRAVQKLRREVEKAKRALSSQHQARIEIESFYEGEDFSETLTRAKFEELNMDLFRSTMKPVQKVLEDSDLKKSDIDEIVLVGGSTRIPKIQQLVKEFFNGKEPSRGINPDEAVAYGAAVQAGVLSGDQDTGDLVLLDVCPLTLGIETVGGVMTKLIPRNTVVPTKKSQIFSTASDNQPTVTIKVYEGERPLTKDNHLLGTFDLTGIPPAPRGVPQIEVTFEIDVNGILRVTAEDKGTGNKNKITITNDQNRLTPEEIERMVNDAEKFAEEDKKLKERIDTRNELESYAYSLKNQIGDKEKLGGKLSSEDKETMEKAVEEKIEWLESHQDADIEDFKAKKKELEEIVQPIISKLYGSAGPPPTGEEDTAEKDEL

“Binding immunoglobulin protein (endogenous in HEK293) (from UniProt P11021 19-654)” was tested, and the binding was “binds”.
